In publication PMC8964805 one finds binding data, which are given here for two molecules.

Chains of the proteins cited; added tags and fusions are not shown.
UniProt P46938: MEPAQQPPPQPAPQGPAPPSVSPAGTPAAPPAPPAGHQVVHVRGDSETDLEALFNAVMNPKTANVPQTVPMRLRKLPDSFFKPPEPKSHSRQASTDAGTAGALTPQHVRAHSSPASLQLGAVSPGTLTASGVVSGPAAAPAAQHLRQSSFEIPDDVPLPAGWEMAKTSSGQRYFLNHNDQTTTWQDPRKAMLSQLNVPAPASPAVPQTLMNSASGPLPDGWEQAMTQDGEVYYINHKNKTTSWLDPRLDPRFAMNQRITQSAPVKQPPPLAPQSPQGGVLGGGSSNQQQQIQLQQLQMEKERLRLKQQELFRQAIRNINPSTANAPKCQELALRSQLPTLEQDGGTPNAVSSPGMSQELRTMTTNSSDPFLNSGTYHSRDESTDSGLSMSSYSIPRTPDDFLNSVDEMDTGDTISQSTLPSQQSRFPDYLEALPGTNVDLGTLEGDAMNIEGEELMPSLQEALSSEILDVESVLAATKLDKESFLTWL

Results are given in words; binding and its absence hold for the method and conditions named. In cells and extracts the contact can be indirect. Some results given as binding are weak or reduced against the parent protein; the word gives no strength. For some assays here: Tags and fused reporters may be left off the sequences shown.

Assay [1] has as its target YAP1 (endogenous, primary mouse hepatocytes) (mouse (endogenous in primary hepatocytes)) (UniProt P46938). In words: co-IP; lysates of primary hepatocytes of wild-type mice isolated at the indicated times after PHx; immunoprecipitated with a YAP1 antibody, Bcl3 detected by western blot; 1 mg total protein with 2 ug antibody or isotype control IgG, 4 °C overnight.
Another assay concerns the target His-YAP1 (UniProt P46938). In words: co-IP; HEK293T cells transfected with His-YAP1 and Flag-Bcl3 plasmids for 48 h; lysates immunoprecipitated with the indicated antibodies, western blot with anti-His or anti-Flag.

B1: Bcl3 (endogenous, primary mouse hepatocytes) (protein, UniProt Q9Z2F6 1-448)
chain: MPRCPAGAMDEGPVDLRTRPKGTPGAALPLRKRPLRPASPEPATTRSPAGPLDALRSGCDVPVVPGPPHCVARPEALYYQGPLMPIYSTPTMAPHFPLLNLPTHPYSMICPMEHPLSADIAMATRVDEDGDTPLHIAVVQNNIAAVYRILSLFKLGSREVDVHNNLRQTPLHLAVITTLPDMVRLLVTAGASPMALDRHGQTAIHLACEHRSPSCLQALLDSATSGSVDLEVRNYEGLTALHVAVNTGCQEAVLLLLERGADIDAVDIKSGRSPLIHAVENNSLNMVQLLLLHGANVNAQMYSGSSALHSASGRGLLPLVRTLVRSGADSGLKNCHNDTPLMVARSRRVIDILRGKASRAASGSQPEPSPDQSATNSPESSSRLSSNGLQSSPSSSPSLSPPKDAPGFPATPQNFFLPTTSTPAFLPFPGVLRGPGRPVPPSPAPGSS
For B1, the binding entry in assay [1] is given as “binds”.

B2: Flag-Bcl3 (protein, UniProt Q9Z2F6 1-448)
chain: MPRCPAGAMDEGPVDLRTRPKGTPGAALPLRKRPLRPASPEPATTRSPAGPLDALRSGCDVPVVPGPPHCVARPEALYYQGPLMPIYSTPTMAPHFPLLNLPTHPYSMICPMEHPLSADIAMATRVDEDGDTPLHIAVVQNNIAAVYRILSLFKLGSREVDVHNNLRQTPLHLAVITTLPDMVRLLVTAGASPMALDRHGQTAIHLACEHRSPSCLQALLDSATSGSVDLEVRNYEGLTALHVAVNTGCQEAVLLLLERGADIDAVDIKSGRSPLIHAVENNSLNMVQLLLLHGANVNAQMYSGSSALHSASGRGLLPLVRTLVRSGADSGLKNCHNDTPLMVARSRRVIDILRGKASRAASGSQPEPSPDQSATNSPESSSRLSSNGLQSSPSSSPSLSPPKDAPGFPATPQNFFLPTTSTPAFLPFPGVLRGPGRPVPPSPAPGSS
For the molecule B2, the binding entry in the assay with His-YAP1 is recorded as “binds”.
